At least one peptide structure holds a part that was inferred or is arguable (an end, a ring closure or a residue). Where no end group is shown, it is not given here.
Tests used:
male Wistar rats [1] = assay: Irwin test; type: in vivo, rat; conditions: tail vein injection
Method: An Irwin test was performed on 12 male Wistar rats (Iffa Credo, L'Arbresles, France), weighing 260-280 g. They were housed in groups of 4 in a climate controlled room with a 12h light:dark cycle (light 8:00 PM-8:00 AM) and had access to food and water ad libitum. After a seven day acclimatization period, the rats were weighed, identified and randomly assigned to one of the four treatment groups. The drug was injected to the tail vein of the rats according to the group dose.
Observations were performed 15, 30, 60 and 120 minutes after administration. Among the most noticeable results are the results concerning the awareness state of the rats.

[2] = test system: male rats with sexually receptive female; assay: Dose-response relationship of FG-005 peptide on the male rat sexual behavior; type: in vivo; conditions: for Number of Mounts Before the First Ejaculation, Mean / Number of Mounts Before the Fourth Ejaculation, Mean / Number of Mounts Before the Third Ejaculation, Mean / Number of Mounts per Ejaculation, Mean / Number of Total Mounts with Penetration, Mean / Number of Total Mounts, Mean: i.v.; for Number of Total Mounts, Mean: 45 min. observation period
male Wistar rats [3] = assay: Behavior of male rats in the presence of females; type: in vivo, rat; conditions: for number of ejaculations, Mean: in 45 minutes

**Q.** Which results are given for QHNPR [FG-005, Gln-His-Asn-Pro-Arg]?
**A.** finger approach test (male Wistar rats [1]): increased interest; vocalization when third parties approach (male Wistar rats [1]): increased vocalization; wire maneuver test (male Wistar rats [1]): Significant response; tail pinch test (FIGS. 4-7) (male Wistar rats [1]; 15, 30, 60, 120 minutes): less reactivity to nociceptive stimuli; sleep / awareness state (FIG. 1) (male Wistar rats [1]; after 2 hours of tests): much less likely to fall asleep; total number of ejaculations ([2]; 3 μg/Kg, 45 minute observation period): lower than that of vehicle-treated rats; first ejaculation latency ([2]; 3 μg/Kg, versus vehicle-injected rats): increased significantly; number of mounts (total, with intromission, before first ejaculation, during interejaculatory intervals, per ejaculation) ([2]; ANOVA, 9-10 (6-10) rats per dose): significant increase with a dose-dependent relationship; aggressive impulse behavior ([2]; compared with control rats): loss of aggressive impulse behavior; male rat sexual behavior ([2]; doses of 0.03 μg-1 μg and 3 μg/Kg, 45-min-period of observation): induced improvement; Number of Mounts Before the First Ejaculation, Mean ([2]; group FG-0.3): 31.111; Number of Mounts Before the Fourth Ejaculation, Mean ([2]; group FG-0.3): 11.500; Number of Mounts Before the Third Ejaculation, Mean ([2]; group FG-0.3): 13.444; Number of Mounts per Ejaculation, Mean ([2]; group FG-0.3): 20.220; Number of Total Mounts with Penetration, Mean ([2]; group FG-0.3): 77.111; Number of Total Mounts, Mean ([2]; group FG-0.3): 81.778; Number of Mounts Before the First Ejaculation, Mean ([2]; group FG-3): 37.500; Number of Mounts Before the Fourth Ejaculation, Mean ([2]; group FG-3): 24.167; Number of Mounts Before the Third Ejaculation, Mean ([2]; group FG-3): 22.889; Number of Mounts per Ejaculation, Mean ([2]; group FG-3): 36.013; Number of Total Mounts with Penetration, Mean ([2]; group FG-3): 97.700; Number of Total Mounts, Mean ([2]; group FG-3): 110.100; Number of Mounts Before the First Ejaculation, Mean ([2]; group Fg-1): 33.444; Number of Mounts Before the Fourth Ejaculation, Mean ([2]; group Fg-1): 19.143; Number of Mounts Before the Third Ejaculation, Mean ([2]; group Fg-1): 18.333; Number of Mounts per Ejaculation, Mean ([2]; group Fg-1): 26.911; Number of Total Mounts with Penetration, Mean ([2]; group Fg-1): 90.556; Number of Total Mounts, Mean ([2]; group Fg-1): 96.667; second ejaculation latency ([2]; pronounced effect at 1 and 3 μg/Kg): significant dose-related prolongation; third ejaculation latency ([2]; rat, in vivo): tended also to increase in a dose-related manner; Latency of the first mount, Mean (male Wistar rats [3]; 3 μg/kg): 93.333 s; refractory period between the second ejaculation and the next mount, Mean (male Wistar rats [3]; 3 μg/kg): 311.333 s; number of ejaculations, Mean (male Wistar rats [3]; 3 μg/kg): 5.333; Latency of the first mount, Mean (male Wistar rats [3]; 15 μg/kg): 23.000 s; refractory period between the second ejaculation and the next mount, Mean (male Wistar rats [3]; 15 μg/kg): 412.000 s; number of ejaculations, Mean (male Wistar rats [3]; 15 μg/kg): 4.000; Latency of the first mount, Mean (male Wistar rats [3]; 30 μg/kg): 13.667 s; refractory period between the second ejaculation and the next mount, Mean (male Wistar rats [3]; 30 μg/kg): 373.667 s; number of ejaculations, Mean (male Wistar rats [3]; 30 μg/kg): 4.667
